The values below come from article PMC4396151.

For at least one entry, the source does not settle the construct or the ends of the probe. At least one result comes from cells or an extract, where the contact may be indirect.

This data set relates to STAT5 (activated by PDGFRα-V561D, -D842V or -D842Y). The data set is described as follows: EMSA with supershift. To be noted: nuclear extract of doxycycline-induced cells expressing PDGFRα-V561D, EMSA as previously described (ref 55), protein in an extract, label: 32P 5' end label.

For the sequence “AGATTTCTAGGAATTCAAATC / GATTTGAATTCCAAGAAATCT [β-casein oligonucleotide]”, the binding result is given as “binds”.
